Results on one compound are retold here after US5494909A, “Substituted oxazinoisoquinoline derivatives, pharmaceutical compositions containing them and process for preparing same” (priority 1991, dated 1996).

The subject of assay [1] is Veratrine-stimulated Ca uptake, synaptosomes prepared from rat brain. The assay is classed as biochemical, rat (Wistar). Particulars: pH 7.4; read-out: Inhibition of Veratrine-stimulated Ca uptake IC50.
For assay [2], the system named is Potassium-stimulated Ca uptake, synaptosomes prepared from rat brain. Description: Inhibition of potassium-stimulated calcium uptake into rat brain synaptosomes. Particulars: read-out: Inhibition of Potassium-stimulated Ca uptake IC50, 60 mmoles/l KCl, pH 7.4, 37° C., 20 seconds.

The structures appear in SMILES notation.

For the compound `C(=C\c1ccccc1)/CN1CCN(C(c2ccccc2)c2ccccc2)CC1` [cinnarizine, 1trans-cinnamyl-4-(diphenylmethyl)piperazine], the values for the IC50 in assay [1] and in assay [2] were 1 µM and 71.6 µM, respectively.
